From PubChem BioAssay AID328 (DTP/NCI, 2004)
The list shows only some results of the screen, not a fair sample: it is rich in T/C values a quarter to a half above the control, in often repeated tests (any T/C) and in doses without a T/C. Other doses and runs of a compound stand elsewhere. T/C is the treated group as % of the vehicle group. Some entries give survivors of the animals treated and no T/C: the source files T/C as zero there, which appears to mark a toxic dose or a test without result, not a measured value. Some doses without a T/C left all or most animals alive at the check, yet need not have been tolerated: the source hardly ever lists a survival T/C far under the control, and the zero likely stands for such cases as well. Counts of survivors are from the toxicity check (mostly the fifth day) where no day follows; animals may have died later. Schedules are NCI's codes, read here as Q, the interval in days (D) or hours (H), X, the number of doses. Where survival is the endpoint, the PubChem record calls one and a half times the control and up active, and a quarter to a half above the control has no call in these data; cut-offs in other NCI protocols can differ. Some T/C values carry the count of animals alive at the toxicity check (mostly the fifth day); without a count, all were alive then. Some doses were run more than once; the values are given in rising order.

Tested on: BDF1 mice, P388 leukemia ip, median survival T/C
Experiment: NCI In Vivo Anticancer Drug Screen. Data for tumor model P388 Leukemia (intraperitoneal) in B6D2F1 (BDF1) mice
Conditions: T/C endpoint: median survival time, higher T/C = longer survival
Outline: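 Transplantable tumour in mice; compound vs vehicle dosing; survival scored; ratio of treated to control reported.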

[1] = dose: 100.0 mg/kg/injection, schedule: Q01DX009 (ip), vehicle: saline with Tween-80
[2] = dose: 50.0 mg/kg/injection, schedule: Q01DX009 (ip), vehicle: saline with Tween-80
[3] = dose: 200.0 mg/kg/injection, schedule: Q01DX009 (ip), vehicle: saline with Tween-80
[4] = dose: 12.5 mg/kg/injection, schedule: Q01DX009 (ip), vehicle: Klucel (hydroxypropylcellulose) (HPC)
[5] = dose: 25.0 mg/kg/injection, schedule: Q01DX009 (ip), vehicle: Klucel (hydroxypropylcellulose) (HPC)
[6] = dose: 100.0 mg/kg/injection, schedule: Q04DX003 (ip), vehicle: Klucel (hydroxypropylcellulose) (HPC)
[7] = dose: 100.0 mg/kg/injection, schedule: Q01DX009 (ip), vehicle: saline
[8] = dose: 50.0 mg/kg/injection, schedule: Q01DX009 (ip), vehicle: Klucel (hydroxypropylcellulose) (HPC)
[9] = dose: 50.0 mg/kg/injection, schedule: Q01DX009 (ip), vehicle: saline

## CC[C@@]1(O)C[C@H](OC2CC(N(C)C)C(OC3CC(O)C(OC4CCC(=O)C(C)O4)C(C)O3)C(C)O2)c2c(cc3c(c2O)C(=O)c2c(O)cccc2C3=O)[C@H]1C(=O)OC (stereo partly drawn)
dose: 0.25 mg/kg/injection, schedule: Q01DX009 (ip), vehicle: saline
  T/C: 134 % of control
dose: 0.5 mg/kg/injection, schedule: Q01DX009 (ip), vehicle: water
  T/C: 125 % of control
dose: 1.0 mg/kg/injection, schedule: Q01DX009 (ip), vehicle: saline
  T/C: 147 % of control [5 of 6 alive]
dose: 1.0 mg/kg/injection, schedule: Q01DX009 (ip), vehicle: water
  T/C: 142 % of control
dose: 2.0 mg/kg/injection, schedule: Q01DX009 (ip), vehicle: saline
  T/C: 138 % of control
dose: 8.0 mg/kg/injection, schedule: Q01DX009 (ip), vehicle: water
  survivor count: 6 of 6
dose: 15.0 mg/kg/injection, schedule: Q04DX003 (ip), vehicle: water
  survivor count: 8 of 8
dose: 18.8 mg/kg/injection, schedule: Q04DX003 (ip), vehicle: water
  T/C: 125 % of control
dose: 37.5 mg/kg/injection, schedule: Q04DX003 (ip), vehicle: water
  survivor count: 2 of 6
dose: 75.0 mg/kg/injection, schedule: Q04DX003 (ip), vehicle: water
  survivor count: 0 of 6

## O=NN(CCBr)C(=O)NCCBr
dose: 13.0 mg/kg/injection, schedule: Q01DX009 (ip), vehicle: gum acacia
  T/C: 133 % of control
dose: 20.0 mg/kg/injection, schedule: Q01DX009 (ip), vehicle: gum acacia
  T/C: 145 % of control
dose: 25.0 mg/kg/injection, schedule: Q01DX009 (ip), vehicle: gum acacia
  T/C: 138 % of control
dose: 200.0 mg/kg/injection, schedule: Q04DX003 (ip), vehicle: saline
  T/C: 127 % of control

## O=S1(=O)C2CCCCC2(N2CCOCC2)C1c1ccccc1 (stereo not drawn)
dose: 400.0 mg/kg/injection, schedule: Q04DX003 (ip), vehicle: other
  T/C: 131 % of control

## O=C(NS(=O)(=O)c1ccc(Cl)cc1)c1ccccc1
[1]
  survivor count: 5 of 6

## CC(=O)Oc1cccnc1C(C#N)C#N
dose: 100.0 mg/kg/injection, schedule: Q01DX005 (ip), vehicle: saline with Tween-80
  survivor count: 1 of 6
dose: 200.0 mg/kg/injection, schedule: Q01DX005 (ip), vehicle: saline with Tween-80
  survivor count: 0 of 6

## Cc1cc(Cl)n[nH]1
[2]
  survivor count: 7 of 7
[1]
  survivor count: 5 of 7

## CN(c1ccccc1)c1cc2c(cc1[N+](=O)[O-])no[n+]2[O-]
dose: 30.0 mg/kg/injection, schedule: Q01DX009 (ip), vehicle: saline with Tween-80
  T/C: 133 % of control

## CC[N+](CC)(CC)CCCNC1=CC(=O)C(NCCC[N+](CC)(CC)CC)=CC1=O
dose: 1.56 mg/kg/injection, schedule: Q04DX003 (ip), vehicle: saline
  survivor count: 3 of 6
dose: 25.0 mg/kg/injection, schedule: Q04DX003 (ip), vehicle: saline
  survivor count: 0 of 6
dose: 50.0 mg/kg/injection, schedule: Q04DX003 (ip), vehicle: saline
  survivor count: 0 of 6
dose: 100.0 mg/kg/injection, schedule: Q04DX003 (ip), vehicle: saline
  survivor count: 0 of 6

## S=C(N/N=C1\CSCc2ccccc21)Nc1cc(Cl)ccc1Cl
[1]
  survivor count: 6 of 6

## NNCc1c(C(=O)O)oc2ccccc12
[3]
  survivor count: 4 of 6

## O=C1Cc2ccc3c(c2O1)C(=O)c1ccccc1C3=O
dose: 400.0 mg/kg/injection, schedule: Q04DX002 (ip), vehicle: saline with Tween-80
  T/C: 135 % of control

## O=C(/C=C\c1ccnc2ccccc12)c1ccc([N+](=O)[O-])cc1
dose: 50.0 mg/kg/injection, schedule: Q04DX003 (ip), vehicle: water
  survivor count: 6 of 6

## CCN(CC)CCCCCNc1cc(Cl)c(Cl)cc1[N+](=O)[O-]
dose: 200.0 mg/kg/injection, schedule: Q01DX009 (ip), vehicle: saline
  survivor count: 0 of 6

## Cc1nc(N(C)C)c2cnn(-c3ccccc3)c2n1
dose: 150.0 mg/kg/injection, schedule: Q01DX009 (ip), vehicle: Klucel (hydroxypropylcellulose) (HPC)
  survivor count: 6 of 6
dose: 225.0 mg/kg/injection, schedule: Q01DX009 (ip), vehicle: Klucel (hydroxypropylcellulose) (HPC)
  survivor count: 5 of 6

## N#C/C1=C(\N)CCCOCCCOCCCOCCCOCCCOCC1
dose: 400.0 mg/kg/injection, schedule: Q04DX003 (ip), vehicle: saline
  survivor count: 0 of 6

## COc1ccc(/C=C2\CCC3C(CCCC34OCCO4)C2=O)cc1 (stereo not drawn)
dose: 100.0 mg/kg/injection, schedule: Q01DX009 (ip), vehicle: Klucel (hydroxypropylcellulose) (HPC)
  T/C: 127 % of control

## CN(C)CCNc1ccc([N+](=O)[O-])c2sc3ccccc3c(=O)c12
[4]
  T/C: 125 % of control
dose: 17.0 mg/kg/injection, schedule: Q01DX009 (ip), vehicle: Klucel (hydroxypropylcellulose) (HPC)
  T/C: 134 and 138 % of control
[5]
  T/C: 137 % of control
[6]
  survivor count: 1 of 6
dose: 200.0 mg/kg/injection, schedule: Q04DX003 (ip), vehicle: Klucel (hydroxypropylcellulose) (HPC)
  survivor count: 1 of 6
dose: 400.0 mg/kg/injection, schedule: Q04DX003 (ip), vehicle: Klucel (hydroxypropylcellulose) (HPC)
  survivor count: 3 of 6

## CNc1nc2c(N)ncnc2n1C1OC(CO)C(O)C1O (stereo not drawn)
dose: 25.0 mg/kg/injection, schedule: Q01DX009 (ip), vehicle: saline with Tween-80
  T/C: 134 % of control
[2]
  survivor count: 0 of 6
[1]
  survivor count: 0 of 6

## O=S(=O)(O)CCO
[7]
  survivor count: 6 of 6

## CN(C)N=Nc1ccccc1[N+](=O)[O-]
[8]
  T/C: 126 % of control
dose: 200.0 mg/kg/injection, schedule: Q01DX009 (ip), vehicle: Klucel (hydroxypropylcellulose) (HPC)
  survivor count: 5 of 6

## CCC(=O)OCC(=O)[C@]1(O)Cc2c(O)c3c(c(O)c2[C@@H](OC2CC(N)C(O)C(C)O2)C1)C(=O)c1c(OC)cccc1C3=O (stereo partly drawn)
dose: 4.0 mg/kg/injection, schedule: Q01DX009 (ip), vehicle: saline
  survivor count: 6 of 6
dose: 8.0 mg/kg/injection, schedule: Q01DX009 (ip), vehicle: saline
  survivor count: 5 of 6

## Clc1cc(N2CC2)nc(N2CC2)n1
dose: 2.5 mg/kg/injection, schedule: Q01DX009 (ip), vehicle: saline
  survivor count: 6 of 6
dose: 3.12 mg/kg/injection, schedule: Q01DX001 (ip), vehicle: saline
  T/C: 140 % of control
dose: 5.0 mg/kg/injection, schedule: Q01DX009 (ip), vehicle: saline
  survivor count: 6 of 6
dose: 13.0 mg/kg/injection, schedule: Q04DX003 (ip), vehicle: saline
  survivor count: 6 of 6

## O=C1C(Cl)=C(N2CCOCC2)C(=O)c2ccccc21
[8]
  survivor count: 6 of 6

## CCCNCc1c2c(O)c3c(O)c(C)c4c(c3c1O)C(=O)C(C)(O/C=C/C(OC)C(C)C(OC(C)=O)C(C)C(O)C(C)C(O)C(C)/C=C/C=C(/C)C(=O)N2)O4 (stereo not drawn)
[3]
  survivor count: 6 of 6

## Nc1nc(N)c2cc(Sc3cccc(C(F)(F)F)c3)ccc2n1
[1]
  T/C: 129 % of control
[3]
  T/C: 137 % of control

## CNC(=O)OCc1c(COC(=O)NC)c(-c2ccc(Cl)cc2)n2c1CCC2
[4]
  T/C: 129 % of control
[5]
  T/C: 135 % of control

## Cc1ccc2scc3c4ccccc4nc-3c2c1
[5]
  survivor count: 3 of 6
[8]
  survivor count: 3 of 6
[9]
  T/C: 92, 122 [5 of 6 alive], 127 % of control
  survivor count: 4 of 6
dose: 75.0 mg/kg/injection, schedule: Q01DX009 (ip), vehicle: Klucel (hydroxypropylcellulose) (HPC)
  survivor count: 0 of 6
[7]
  survivor count: 0 of 6
dose: 110.0 mg/kg/injection, schedule: Q01DX009 (ip), vehicle: saline
  survivor count: 4 of 6
dose: 112.0 mg/kg/injection, schedule: Q01DX009 (ip), vehicle: Klucel (hydroxypropylcellulose) (HPC)
  survivor count: 0 of 6
dose: 225.0 mg/kg/injection, schedule: Q04DX003 (ip), vehicle: saline
  survivor count: 2 of 6

## COc1ccc(/C=C(C(=O)O)/C(=C/c2ccc(OC)c(OC)c2)C(=O)O)cc1OC
[6]
  T/C: 125 % of control
